The source of these data is article PMC5785023.

These are yes or no findings as the source states them, for the method shown. In cells and extracts the contact can be indirect. A result given as binding can be weak or reduced; the word gives no strength. Sequences can lack the tags named with a protein.

Assay [1] concerns the target T1, AKAP200-S-Flag (Drosophila melanogaster) (UniProt Q9VLL3).
T1 sequence: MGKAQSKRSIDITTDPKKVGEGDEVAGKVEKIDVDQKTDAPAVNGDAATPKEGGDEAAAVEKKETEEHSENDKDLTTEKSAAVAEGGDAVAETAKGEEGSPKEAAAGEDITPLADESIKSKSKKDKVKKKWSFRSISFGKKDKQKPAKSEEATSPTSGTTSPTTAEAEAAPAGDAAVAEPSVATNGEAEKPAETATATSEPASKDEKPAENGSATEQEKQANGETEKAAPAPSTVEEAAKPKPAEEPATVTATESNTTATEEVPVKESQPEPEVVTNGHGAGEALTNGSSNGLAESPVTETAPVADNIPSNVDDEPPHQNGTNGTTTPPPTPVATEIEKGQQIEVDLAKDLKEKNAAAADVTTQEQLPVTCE
The experiment in a line: co-IP; S2 cells co-transfected with pmt-Notch(full length) (600 μM CuSO4, 24 h) and pac-AKAP200-S-Flag or pAC-Flag control; lysis in 50mM Tris HCl pH 7.5, 150mM NaCl, 1mM EDTA, 1% Triton-X; anti-Flag M2 agarose overnight at 4°C; blot with anti-NICD (normal and long exposure).

The target in assay [2] is Notch-GFP (Drosophila melanogaster). Description: co-IP; S2 cells co-transfected with pac-AKAP200-S-Flag and pUAST-Notch-GFP or pUAST-GFP (with Actin-Gal4); GFP-Trap A (Chromotek); wash buffer 10mM TrisHCl pH7.5, 150mM NaCl, 0.5mM EDTA; blot with anti-Flag.

Regarding “full length Notch (Drosophila melanogaster) (receptor)”, the binding result in assay [1] was “no binding”. Same read-out and setting: next, “Notch intracellular domain (NICD) fragment (Drosophila melanogaster) (domain or fragment)”: “binds”.

B1: AKAP200-S-Flag (protein, UniProt Q9VLL3-2 1-372)
chain: MGKAQSKRSIDITTDPKKVGEGDEVAGKVEKIDVDQKTDAPAVNGDAATPKEGGDEAAAVEKKETEEHSENDKDLTTEKSAAVAEGGDAVAETAKGEEGSPKEAAAGEDITPLADESIKSKSKKDKVKKKWSFRSISFGKKDKQKPAKSEEATSPTSGTTSPTTAEAEAAPAGDAAVAEPSVATNGEAEKPAETATATSEPASKDEKPAENGSATEQEKQANGETEKAAPAPSTVEEAAKPKPAEEPATVTATESNTTATEEVPVKESQPEPEVVTNGHGAGEALTNGSSNGLAESPVTETAPVADNIPSNVDDEPPHQNGTNGTTTPPPTPVATEIEKGQQIEVDLAKDLKEKNAAAADVTTQEQLPVTCE
On to B1, for which the binding entry in assay [2] is on record as “binds”.
